Assay results from patent US20060070135A1, “Compositions and methods for inhibiting the enzymatic activity of PTP-1B” (priority 1998, published 2006).
The structures given here were assigned with low confidence; some may be wrong.

Chains of the proteins cited; added tags and fusions are not shown.
UniProt P18031, whole entry: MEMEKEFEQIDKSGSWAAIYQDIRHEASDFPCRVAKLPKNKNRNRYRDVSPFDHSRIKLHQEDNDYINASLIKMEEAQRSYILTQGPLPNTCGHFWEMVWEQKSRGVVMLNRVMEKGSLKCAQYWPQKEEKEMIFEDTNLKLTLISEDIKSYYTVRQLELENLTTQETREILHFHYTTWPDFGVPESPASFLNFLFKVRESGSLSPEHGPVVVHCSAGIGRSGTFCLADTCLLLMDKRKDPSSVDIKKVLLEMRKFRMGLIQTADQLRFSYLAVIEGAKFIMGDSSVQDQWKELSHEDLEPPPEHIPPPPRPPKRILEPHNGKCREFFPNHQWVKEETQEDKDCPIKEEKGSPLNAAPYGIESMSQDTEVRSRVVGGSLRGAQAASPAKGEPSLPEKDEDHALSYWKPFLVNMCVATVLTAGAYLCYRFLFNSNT

Legend:
[1] = biological target: human PTP-1B (PTP-1B-GST fusion protein) (Homo sapiens, UniProt P18031)
[2] = test system: phosphorylation level of the insulin receptor in CHO-IR cells (endogenous PTP-1B); assay: Intact cell assay: insulin receptor phosphorylation level in CHO-IR cells treated with PTP-1B inhibitors and stimulated with insulin; details: at 50 μM, 5 nM insulin
Protocol: The phosphorylation level of the insulin receptor (IR) was determined in CHO-IR cells (Chinese hamster ovarian cells expressing endogenous PTP-1B and overexpressing human insulin receptor; ATCC, Manassas, Va.) treated with PTP-1B inhibitors and stimulated with 5 nM insulin. CHO-IR cells were grown in F12 media, 10% fetal bovine serum (FBS), and 1% penstrep. All experiments were conducted within the first 12 passages after thawing cells.
On the first day of the experiment, CHO-IR cells were placed in 6-well plates (1/10 of 100 mm confluent plate). Once cells were confluent (˜24 hours later), the cells were starved overnight in 0% fetal bovine serum F12 medium. After the overnight incubation, the medium was changed to fresh 0% F12 30 minutes prior to the addition of inhibitor. A 1 mL aliquote of media containing inhibitor (10, 25 or 50 μM), with a final concentration of 0.1% DMSO, was added to each well. The inhibitors were added directly to the serum-free media, shortly before using them (i.e., the inhibitor was added to cells within 10 minutes of dilution). Cells were incubated with inhibitors for 2-4 hours. […]
Protein quantification was conducted using Bradford reagent (BIO-RAD, Hercules, Calif.). […]
Bands visualized on the blots were quantified using NIH Image 1.62. Quantification was conducted for at least three experiments.

Structure (SMILES): O=C(O)c1cc(N2C(=O)c3cccc([N+](=O)[O-])c3C2=O)cc(N2C(=O)c3cccc([N+](=O)[O-])c3C2=O)c1
- IC50 [1]: 530 nM
- Intact cell assay: fold-increase over control [2]: Inactive at 50 μM

Structure (SMILES): O=C(O)c1cc(N2C(=O)c3cccc4c([N+](=O)[O-])ccc(c34)C2=O)cc(N2C(=O)c3cccc4c([N+](=O)[O-])ccc(c34)C2=O)c1
- IC50 [1]: 920 nM

Structure (SMILES): Cc1ccc(C=C2SC(=S)N(CCC(=O)Nc3ccc(S(=O)(=O)Nc4nccs4)cc3)C2=O)cc1
- IC50 [1]: 1460 nM
